Measurements: patent publication CN105461808A

B1: H018-17B5.5.1 (antibody, mouse IgG1, V domains shown)
VH: QVQLQQSGAELMKPGASVKISCKATGYKFSSYWIEWVKQRPGHGLEWIGEILPGSGNPNYDEKFKGKATFTADTSSNTAYMQLSSLTSEDSAVYYCARERWMDSWGQGTSVTVSS
VL: DIQMTQTASSLSASLGDRVTISCSASQGIFNYLNWYQQKPDGTVTVLIYYTSRLHSGVPSRFSGSGSGTDYSLTISNLEPEDIATYYCQQYSKLPYTFGGGTKLEIKR
B2: H017-9C10.2.8 (antibody, mouse IgG1, V domains shown)
VH: QVQLKQSGFGLVLPSQSLSITCTVSGFSLTSYGVHWVRQSPGKGLEWLGLIWSGGGTDYNAAFISRLSISKDNSKSQVFFKINSLQANDTAIYYCARQLGLRAMDYWGQGTSVTVSS
VL: DILLTQSPAILSVSPGERVSFSCRASQSIGTTIHWYQQRTNGSPRLLIKYASESVSGIPSRFSGSGSGTDFTLSINSVESEDIADYYCQQSNSWPLTFGAGTKLEIK
B3: H017-6F11.3.2 (antibody, mouse IgG2b, V domains shown)
VH: EVQLQQSGAELVKPGASVKLSCTASGFNIKDTYIHWMRQRPEQGLEWIGRIDPANDNTKYDPKFQGKATVTADTSSNTAYLQLSSLTSEDTAVYYCARGLRLRYFDVWGAGTTVTVSS
VL: DIQMTQTPSSLSASLGGKVTITCKASQDIHKYIAWYQHKPGKGPRLLIHYTSTLQPGIPSRFSGSGSGRDFSFSISNLEPEDFETYYCLQYENLLPTFGGGTKLEIK

What follows are binders tested against MonkeyPDL1-his (monkey) (assay: ELISA, MonkeyPDL1-his coated).

binding	Binder
binds	B1
binds	B2
binds	B3

These binders were tested against MonkeyPDL1-his (monkey) (assay: ELISA, MonkeyPDL1-his coated (legend of Fig. 3-4)).

binding	Binder
binds	B1
binds	B2
binds	B3

What follows are binders tested against MonkeyPDL1-his (monkey) (assay: summary of the tests done (ELISA)).

binding	Binder
binds	B1
binds	B2
binds	B3

These are yes or no findings as the source states them, for the method shown. Binding can be weak; no strength is given.
